Results are given in words; binding and its absence hold for the method and conditions named. Binding seen in cells or lysates may run through a third protein.

Chains of the proteins cited; added tags and fusions are not shown.
UniProt P19474: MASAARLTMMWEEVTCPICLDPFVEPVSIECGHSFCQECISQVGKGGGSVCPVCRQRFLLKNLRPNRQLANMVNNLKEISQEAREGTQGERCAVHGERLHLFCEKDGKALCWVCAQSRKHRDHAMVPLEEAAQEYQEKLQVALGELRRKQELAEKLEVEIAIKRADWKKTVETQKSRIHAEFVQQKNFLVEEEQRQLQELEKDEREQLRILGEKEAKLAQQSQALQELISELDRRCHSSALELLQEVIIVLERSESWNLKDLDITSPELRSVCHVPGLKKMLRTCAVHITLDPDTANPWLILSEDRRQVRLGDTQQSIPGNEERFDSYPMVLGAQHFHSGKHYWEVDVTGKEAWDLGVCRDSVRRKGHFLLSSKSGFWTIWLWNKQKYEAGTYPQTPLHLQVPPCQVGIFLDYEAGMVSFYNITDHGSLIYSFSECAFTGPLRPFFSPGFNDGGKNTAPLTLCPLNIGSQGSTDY
UniProt P15923: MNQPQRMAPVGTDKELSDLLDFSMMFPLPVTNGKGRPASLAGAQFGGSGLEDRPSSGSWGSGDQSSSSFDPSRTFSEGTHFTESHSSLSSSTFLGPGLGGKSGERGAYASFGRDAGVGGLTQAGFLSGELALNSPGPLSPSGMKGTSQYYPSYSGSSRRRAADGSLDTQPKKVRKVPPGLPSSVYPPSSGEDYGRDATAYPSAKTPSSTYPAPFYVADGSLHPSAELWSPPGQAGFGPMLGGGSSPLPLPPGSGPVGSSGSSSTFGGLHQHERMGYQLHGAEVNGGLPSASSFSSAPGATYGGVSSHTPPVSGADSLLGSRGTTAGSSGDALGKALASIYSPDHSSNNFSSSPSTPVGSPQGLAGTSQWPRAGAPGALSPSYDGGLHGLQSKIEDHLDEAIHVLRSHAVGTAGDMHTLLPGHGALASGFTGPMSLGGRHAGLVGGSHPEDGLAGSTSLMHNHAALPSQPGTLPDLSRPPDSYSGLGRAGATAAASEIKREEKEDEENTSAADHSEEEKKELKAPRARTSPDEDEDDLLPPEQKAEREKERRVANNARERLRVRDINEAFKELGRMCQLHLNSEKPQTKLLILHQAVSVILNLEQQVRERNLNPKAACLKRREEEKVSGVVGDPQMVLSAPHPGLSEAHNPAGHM

The values below come from PMC12462522.

This assay deals with Tripartite motif containing 21 (TRIM21) (human) (UniProt P19474). The experiment in a line: co-IP; cell lysate in Pierce IP Lysis Buffer; anti-TRIM21, anti-TCF3 or rabbit control IgG overnight at 4 °C, Protein A/G-Agarose, washing, elution with loading buffer, Western blot.

Turning to “Transcription Factor 3 (TCF3) (from UniProt P15923 1-654)”, the binding entry is “no binding”.
